{
  "sequences": {"note": "Amino acid sequences for entries named in this document (tags omitted). A change or cut given only in a name is not applied to a line headed by its entry.", "UniProt O75131": "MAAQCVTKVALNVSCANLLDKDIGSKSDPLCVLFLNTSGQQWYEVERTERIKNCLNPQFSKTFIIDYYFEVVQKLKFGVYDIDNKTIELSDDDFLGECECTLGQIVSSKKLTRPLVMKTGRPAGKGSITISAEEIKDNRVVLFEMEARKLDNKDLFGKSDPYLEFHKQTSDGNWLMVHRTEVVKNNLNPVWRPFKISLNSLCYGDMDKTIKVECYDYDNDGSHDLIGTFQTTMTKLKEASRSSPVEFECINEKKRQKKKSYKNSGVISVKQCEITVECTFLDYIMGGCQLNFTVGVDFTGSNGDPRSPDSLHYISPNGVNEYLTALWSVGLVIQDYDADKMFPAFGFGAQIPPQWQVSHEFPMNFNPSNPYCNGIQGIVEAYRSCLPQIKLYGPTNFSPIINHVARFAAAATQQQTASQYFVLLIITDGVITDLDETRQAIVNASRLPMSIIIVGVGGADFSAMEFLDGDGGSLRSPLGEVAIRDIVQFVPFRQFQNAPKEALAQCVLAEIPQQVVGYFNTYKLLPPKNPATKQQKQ"},
  "source": "patent EP2292266A1",
  "target": "T1, Shc (UniProt P29353)",
  "T1 sequence (looked up)": "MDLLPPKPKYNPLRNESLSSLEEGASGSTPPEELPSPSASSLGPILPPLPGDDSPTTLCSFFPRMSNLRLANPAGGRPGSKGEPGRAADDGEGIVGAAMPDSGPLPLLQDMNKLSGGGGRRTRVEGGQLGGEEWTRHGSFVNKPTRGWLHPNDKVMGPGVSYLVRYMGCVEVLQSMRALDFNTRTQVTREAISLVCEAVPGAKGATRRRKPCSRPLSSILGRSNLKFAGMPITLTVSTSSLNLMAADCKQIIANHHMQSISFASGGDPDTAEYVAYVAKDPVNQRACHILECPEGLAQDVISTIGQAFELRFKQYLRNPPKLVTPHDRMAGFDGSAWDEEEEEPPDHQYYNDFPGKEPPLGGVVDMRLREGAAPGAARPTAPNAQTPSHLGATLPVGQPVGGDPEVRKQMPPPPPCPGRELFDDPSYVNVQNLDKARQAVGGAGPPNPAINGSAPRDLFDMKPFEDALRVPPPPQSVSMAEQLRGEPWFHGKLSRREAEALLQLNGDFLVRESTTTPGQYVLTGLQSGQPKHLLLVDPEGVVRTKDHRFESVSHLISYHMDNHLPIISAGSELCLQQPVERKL",
  "assay": "co-immunoprecipitation, western blot",
  "note": "No constants are given. Whether binding was seen depends on the method and setting. In cells and extracts the contact can be indirect. Some results given as binding are weak or reduced against the parent protein; the word gives no strength.",
  "data": [
    {"substance": "Copine III (from UniProt O75131 1-537)", "values": [
      {"measurement": "binding", "value": "binds"}
    ]}
  ]
}
